Experimental data: PubChem BioAssay AID1259405 (NCATS, 2018)

Aim: 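Mouse-designed siRNAs used to find CHO productivity engineering targets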 (primary screen)
Cell system: Chinese hamster CHO-K1 ovary cells with stable secreted eGFP expression
Knock-down reagent: single siRNA against mouse genes, 0.8 pmol siRNA per well (2 µl of 400 nM stock)
Time to read-out: 3 days
Read-out: 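Per-well intracellular GFP measured by laser scanning cytometry, plus viability from ATP luminescence, each relative to plate median of non-targeting control wells, in %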
Scale: GFP, % of control: higher = more GFP per well, higher productivity; viability (ATP), % of control: higher = more viable cells (more ATP)
Hit rule: 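Called active when intracellular GFP, relative to negative control, is at or above 120%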
Here is one part, drawn at random, of about 50,000 deposited reagents. In the full data, about 4,000 (8%) got an active call. 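Mouse siRNA library applied to hamster cells; one well for each siRNA.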 A number with no mark means an inactive call. Reagents against one gene are numbered here.

gene	siRNA no.	GFP, % of control	viability (ATP), % of control
Arrdc1 (arrestin domain containing 1)	1	52.5	54
Arrdc1 (arrestin domain containing 1)	2	76.1	78.5
Arrdc1 (arrestin domain containing 1)	3	120	116
Blm (Bloom syndrome, RecQ like helicase)	1	178 (active)	118
Blm (Bloom syndrome, RecQ like helicase)	2	56.7	57
Blm (Bloom syndrome, RecQ like helicase)	3	84.6	88.5
Trpm6	1	56.9	51.3
Trpm6	2	44.3	22.1
Trpm6	3	56.1	73.4
Pam16 (presequence translocase-asssociated motor 16)	1	53.6	59.5
Pam16 (presequence translocase-asssociated motor 16)	2	61.3	43.7
Pam16 (presequence translocase-asssociated motor 16)	3	61.1	59.7
Spaca4 (sperm acrosome associated 4)	1	83.1	93
Spaca4 (sperm acrosome associated 4)	2	77.7	62.7
Spaca4 (sperm acrosome associated 4)	3	68.7	71.1
Padi2 (peptidyl arginine deiminase, type II)	1	79.9	77.5
Padi2 (peptidyl arginine deiminase, type II)	2	142 (active)	114
Padi2 (peptidyl arginine deiminase, type II)	3	56.7	48.2
Mapk10 (mitogen-activated protein kinase 10)	1	60.9	69.1
Mapk10 (mitogen-activated protein kinase 10)	2	34.1	40.7
Mapk10 (mitogen-activated protein kinase 10)	3	82.9	93.8
Mapk10 (mitogen-activated protein kinase 10)	4	63.3	70.5
Mapk10 (mitogen-activated protein kinase 10)	5	89.4	99.9
Mapk10 (mitogen-activated protein kinase 10)	6	183 (active)	157
Sypl1 (synaptophysin like 1)	1	81.9	79.4
Sypl1 (synaptophysin like 1)	2	129 (active)	89.7
Med21 (mediator complex subunit 21)	1	93.3	104
Med21 (mediator complex subunit 21)	2	87.7	78.5
Med21 (mediator complex subunit 21)	3	60.2	81.2
Cdc7 (cell division cycle 7)	1	68.5	45.9
Mrps18b (mitochondrial ribosomal protein S18B)	1	34.8	40.7
Mrps18b (mitochondrial ribosomal protein S18B)	2	109	86.9
Mrps18b (mitochondrial ribosomal protein S18B)	3	96	69.7
Abhd14b (abhydrolase domain containing 14b)	1	119	96
Abhd14b (abhydrolase domain containing 14b)	2	72.5	60.1
Abhd14b (abhydrolase domain containing 14b)	3	79.3	89
Or4p7 (olfactory receptor family 4 subfamily P member 7)	1	81	63.7
Or4p7 (olfactory receptor family 4 subfamily P member 7)	2	56.9	59.4
Or4p7 (olfactory receptor family 4 subfamily P member 7)	3	38.9	103
Sart1 (squamous cell carcinoma antigen recognized by T cells 1)	1	60.9	45
Sart1 (squamous cell carcinoma antigen recognized by T cells 1)	2	65.5	69.6
Sart1 (squamous cell carcinoma antigen recognized by T cells 1)	3	74	74.2
Or10g3 (olfactory receptor family 10 subfamily G member 3)	1	36.8	17.5
Or10g3 (olfactory receptor family 10 subfamily G member 3)	2	83.5	93.8
Or10g3 (olfactory receptor family 10 subfamily G member 3)	3	19.7	39.2
Hnrnpu (heterogeneous nuclear ribonucleoprotein U)	1	36.5	66.6
Hnrnpu (heterogeneous nuclear ribonucleoprotein U)	2	142 (active)	105
Hnrnpu (heterogeneous nuclear ribonucleoprotein U)	3	60.7	85
Or7a37 (olfactory receptor family 7 subfamily A member 37)	1	89.2	88
Or7a37 (olfactory receptor family 7 subfamily A member 37)	2	83	92.8
Or7a37 (olfactory receptor family 7 subfamily A member 37)	3	52.6	89.5
Oaz2 (ornithine decarboxylase antizyme 2)	1	91	63.2
Oaz2 (ornithine decarboxylase antizyme 2)	2	92.6	77.9
Or1o2 (olfactory receptor family 1 subfamily O member 2)	1	40.8	45.1
Or1o2 (olfactory receptor family 1 subfamily O member 2)	2	73.5	70.5
Or1o2 (olfactory receptor family 1 subfamily O member 2)	3	69.5	57.6

Look-ups from above:
Oaz2 (ornithine decarboxylase antizyme 2) #1, GFP, % of control = 91
Under “GFP, % of control”, Blm (Bloom syndrome, RecQ like helicase) #3 shows 84.6
Or4p7 (olfactory receptor family 4 subfamily P member 7) #3, GFP, % of control → 38.9
Under “GFP, % of control”, Hnrnpu (heterogeneous nuclear ribonucleoprotein U) #2 shows 142 (active)
Result for Sart1 (squamous cell carcinoma antigen recognized by T cells 1) #3 under “GFP, % of control”: 74
Or7a37 (olfactory receptor family 7 subfamily A member 37) #1, GFP, % of control: 89.2

Continued:
gene	siRNA no.	GFP, % of control	viability (ATP), % of control
Gdpd3 (glycerophosphodiester phosphodiesterase domain containing 3)	1	161 (active)	76.8
Gdpd3 (glycerophosphodiester phosphodiesterase domain containing 3)	2	92.3	106
Gdpd3 (glycerophosphodiester phosphodiesterase domain containing 3)	3	73.5	87.3
Bmp4 (bone morphogenetic protein 4)	1	63.3	57.4
Bmp4 (bone morphogenetic protein 4)	2	59.5	67.8
Bmp4 (bone morphogenetic protein 4)	3	63.3	65
Mios (meiosis regulator for oocyte development)	1	56.8	64.7
Mios (meiosis regulator for oocyte development)	2	64.5	81.1
Mios (meiosis regulator for oocyte development)	3	108	122
Slc38a5	1	119	77.9
Slc38a5	2	86.9	86.5
Slc38a5	3	81.7	57.5
Ddt (D-dopachrome tautomerase)	1	42.6	64.1
Ddt (D-dopachrome tautomerase)	2	56.4	66.5
Ddt (D-dopachrome tautomerase)	3	78.6	73.8
Tmtc2 (transmembrane and tetratricopeptide repeat containing 2)	1	80.9	76.2
Tmtc2 (transmembrane and tetratricopeptide repeat containing 2)	2	61.1	82.6
Tmtc2 (transmembrane and tetratricopeptide repeat containing 2)	3	52.5	54.7
Cyp2r1 (cytochrome P450, family 2, subfamily r, polypeptide 1)	1	84.4	101
Cyp2r1 (cytochrome P450, family 2, subfamily r, polypeptide 1)	2	91	103
Cyp2r1 (cytochrome P450, family 2, subfamily r, polypeptide 1)	3	71.5	43
Nr1h5 (nuclear receptor subfamily 1, group H, member 5)	1	107	107
Nr1h5 (nuclear receptor subfamily 1, group H, member 5)	2	118	57.7
Nr1h5 (nuclear receptor subfamily 1, group H, member 5)	3	88.9	88.6
Baiap2 (brain-specific angiogenesis inhibitor 1-associated protein 2)	1	52	58.2
Baiap2 (brain-specific angiogenesis inhibitor 1-associated protein 2)	2	39.9	38.1
Baiap2 (brain-specific angiogenesis inhibitor 1-associated protein 2)	3	110	100
BC016579 (cDNA sequence, BC016579)	1	57.6	62.5
BC016579 (cDNA sequence, BC016579)	2	80.9	88.2
BC016579 (cDNA sequence, BC016579)	3	126 (active)	111
